Measured values published in PubChem BioAssay AID2685 (National Center for Advancing Translational Sciences (NCATS), 2010).
The other results are listed elsewhere or left out. The main result of the screen is listed elsewhere. These columns were measured beside it and carry no call. Most of these compounds were active or inconclusive in the main read-out, so they are no random draw. Words in brackets tell the shape of the fitted curve; partial curves, single points and poor fits give uncertain potencies.

Assay: qHTS Assay for Lipid Storage Modulators in Drosophila S3 Cells;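 on cell number change: cells counted by Cell Tracker Red CMTPX staining in the red channel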
Settings: BODIPY lipid droplet fluorescence, 18-24 h; for cell number change: measured here: cell count max response, cells fed with added oleic acid
In short: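 Drosophila S3 cells loaded with oleic acid (400 uM, as added) and compounds at several concentrations; lipid droplets imaged by 488-nm laser-scanning cytometry, 500–530 nm intensity and object ratio to cell channel. Percent activity normalized to 20 uM Triacsin C.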

[1] = measured here: lipid fluorescence (Fed channel) AC50, cells fed with added oleic acid
[2] = measured here: cell number channel AC50, cells fed with added oleic acid

| Structure (SMILES) | cell number change | AC50 [1] | AC50 [2] |
| --- | --- | --- | --- |
| CC(=O)Nc1ccc(S(=O)(=O)Nc2ccc(S(=O)(=O)Nc3ncccn3)cc2)cc1 | 5.65% | 6.51 µM [falling, single point] | – |
| CC1=CC(C)(C)n2c(O)c(N=NC(N)=S)c3c(C)c(C)cc1c32 | -15.8% | 4.61 µM [falling, single point] | – |
| Cc1cc(C)c2c(=O)n(CC(=O)N3CCC(N4CCCCC4)CC3)sc2n1 | -69.7% | 18.4 µM [falling, single point] | 18.4 µM [falling, single point] |
| CCCn1c(N)c(C(=O)CSc2nnc(N)s2)c(=O)[nH]c1=O | -51.3% | 18.4 µM [rising, single point] | 29.1 µM [falling, single point] |
| O=C(Nc1ccc(-c2noc(CCc3ccccc3)n2)cc1)c1cccnc1 | – | 0.103 µM [rising, full curve, poor fit] | 2.91 µM [rising, partial curve] |
| c1ccc(-n2nnnc2Cc2nnnn2-c2ccccc2)cc1 | -29% | 16.4 µM [falling, single point] | 4.11 µM [falling, full curve, poor fit] |
| CN(C(=O)COC(=O)c1cccc(S(=O)(=O)N2CCCCCC2)c1)C1CCS(=O)(=O)C1 (stereo unspecified) | -46.5% | – | 29.1 µM [falling, single point] |
| CCOC(=O)N1CCN(S(=O)(=O)c2ccc(C)c(C)c2C)CC1 | 41.3% | – | 29.1 µM [rising, single point] |
| CCC(=O)N1C(C(=O)O)CSC1c1ccc(OC)cc1 (stereo unspecified) | 3.05% | 3.26 µM [rising, single point] | – |
| COC(=O)c1sccc1NC(=O)CSc1ccccc1NS(=O)(=O)c1ccc(Br)cc1 | 130% | 29.1 µM [rising, single point] | 20.6 µM [rising, partial curve] |
| O=C(N/N=C1\CCSc2ccc(F)cc21)c1cccnc1 | 2.98% | 6.51 µM [rising, single point] | – |
| CC(=O)N[C@@H]1c2c(ccc3ccccc23)OC[C@@H]1COC(C)=O | -51.5% | 6.51 µM [falling, partial curve, poor fit] | 3.26 µM [falling, partial curve, poor fit] |
| Cc1cccc(Nc2cc(C)c3c(O)cccc3n2)c1C | -82.7% | 13 µM [falling, partial curve] | 14.6 µM [falling, partial curve] |
| CCCc1[nH]nc2c1C(c1ccc(OC)c(Cn3nc(C)c(Br)c3C)c1)C(C#N)=C(N)O2 (stereo unspecified) | -74.7% | 0.291 µM [rising, full curve, poor fit] | 29.1 µM [falling, single point] |
| CS(=O)(=O)c1ccccc1-c1nc(-c2cccc(Cl)c2)no1 | 7.69% | – | – |
| COc1cc(Cl)c(C)cc1NC(C)C(=O)Nc1cc(C(F)(F)F)ccc1N1CCOCC1 (stereo unspecified) | 32% | – | 5.8 µM [rising, partial curve] |
| Nc1nonc1N1CCCCC1 | -109% | 29.1 µM [falling, partial curve] | – |
| CCCCNC(=O)[C@H]1C[C@H]1[C@@H](O)[C@H](CO)NC(=O)[C@H](CC(C)C)NC(=O)OC(C)(C)C | 18% | – | – |
| Cc1ccc(-n2c(C)cc(C(=O)CSc3n[nH]c(N)n3)c2C)cc1 | 0.297% | – | – |
| COc1ccc(NC(=O)CN2C(=O)C(C)Oc3ccccc32)c(OC)c1 (stereo unspecified) | 45.1% | – | 29.1 µM [rising, single point] |

Whole records from above. Order of values: cell number change | AC50 [1] | AC50 [2]
c1ccc(-n2nnnc2Cc2nnnn2-c2ccccc2)cc1 in the list: -29% | 16.4 µM [falling, single point] | 4.11 µM [falling, full curve, poor fit]
CCOC(=O)N1CCN(S(=O)(=O)c2ccc(C)c(C)c2C)CC1 in the list: 41.3% | – | 29.1 µM [rising, single point]

(continued)

| Structure (SMILES) | cell number change | AC50 [1] | AC50 [2] |
| --- | --- | --- | --- |
| Cc1ccc(SCCC(=O)N2CCN(S(=O)(=O)c3ccccc3)CC2)cc1 | -10.7% | – | – |
| O=C(NCc1ccco1)c1ccc2c(c1)C(=O)N(C1CCCCC1)C2=O | 45.6% | 29.1 µM [rising, single point] | – |
| COc1ccc(NC(=O)C(=O)c2cn(CC(=O)N3CCOCC3)c3ccccc23)cc1OC | -3.54% | 6.51 µM [rising, single point] | – |
| Cc1cc2c(cc1C)NC(c1nc3ccccc3[nH]1)C1=C(CC(C)(C)CC1=O)N2 (stereo unspecified) | -12.7% | – | – |
| CN(CC(=O)Nc1c(Cl)cccc1Cl)C(=O)CNC(=O)c1ccc2c(c1)OCO2 | – | 0.0651 µM [rising, full curve, poor fit] | – |
| COc1ccc(CN(C(=O)c2oc3cc(C)c(C)cc3c2C)C2CCS(=O)(=O)C2)cc1OC (stereo unspecified) | -36.2% | 10.3 µM [falling, partial curve] | 23.1 µM [falling, single point] |
| CC1CN(c2cc3nccnc3cc2F)CC(C)O1 (stereo unspecified) | 21% | – | – |
| CC(/C=N\N1CCN(Cc2ccc(C)cc2)CC1)=C\c1ccccc1 | -12% | 20.6 µM [falling, single point] | – |
| O=c1c2ccccc2nc(-c2ccccc2Cl)n1O | -3% | – | 0.517 µM [falling, full curve] |
| O=C(CN1CCN(c2ccc(F)cc2)CC1)Nc1ccccc1C(=O)NCCc1ccccc1 | 46.3% | 10.3 µM [rising, partial curve] | 11.6 µM [rising, partial curve, poor fit] |
| O=C(c1ccccc1)C1CCN(C(=O)c2ccc(Cl)cc2)CC1 | -23.9% | – | – |
| COc1ccc(N2CCN(S(=O)(=O)c3ccc(-n4cnnn4)c(C)c3)CC2)cc1 | 43.5% | 14.6 µM [rising, partial curve] | 29.1 µM [rising, single point] |
| CCN(CC)c1ccc(Nc2nc(N3CCOCC3)c3ccccc3n2)cc1 | -80.5% | 25.9 µM [falling, single point] | 14.6 µM [falling, single point] |
| O=C(CO/N=C/c1ccccc1OC(F)F)N1CCc2ccccc21 | 2.37% | – | – |
| CCn1c(SCC(=O)Nc2nc(C)cs2)nnc1C(C)NC(=O)c1ccccc1 (stereo unspecified) | -7.23% | 6.51 µM [falling, single point] | – |
| CCC(=O)N1CCN(c2ccccc2NC(=O)COc2cc(C)ccc2C(C)C)CC1 | -37.4% | – | 11.6 µM [falling, partial curve] |
| Cc1c(CCC(C)C)c(=O)n2c([nH]c3ccccc32)c1C#N | 8.66% | 3.66 µM [rising, single point] | – |
| Cc1cccc(Nc2nn3c(=O)c4ccccc4nc3s2)c1 | -20.6% | 4.11 µM [rising, partial curve] | – |
| CCCCCn1c(=O)[nH]c2cc(C(=O)NCc3ccco3)ccc2c1=O | -69.5% | 0.731 µM [falling, partial curve, poor fit] | 25.9 µM [falling, single point] |
| Cc1cc(N=Nc2ccccc2C(=O)O)c(C)c(C)c1O | -1.68% | – | – |

| Structure (SMILES) | cell number change | AC50 [1] | AC50 [2] |
| --- | --- | --- | --- |
| O=C(/C=C/c1ccccc1)N(c1ccccn1)C1CCCCC1 | – | 14.6 µM [rising, partial curve] | – |
| CN(CC(=O)NCc1ccncc1)S(=O)(=O)c1cc(Cl)ccc1Cl | 32.9% | 29.1 µM [rising, single point] | – |
| Cc1cc(C(=O)NC2CCCc3c2cnn3-c2cccc(C)c2C)n(C)n1 (stereo unspecified) | – | 0.731 µM [falling, partial curve, poor fit] | – |
| COc1ccc(C(=O)NN2CCOCC2)cc1[N+](=O)[O-] | -18.5% | 3.98 µM [falling, single point] | – |
| CCOC(=O)C(=CNc1cc(C)nn1-c1ccc(Cl)cc1)C(=O)OCC | 23.9% | 6.51 µM [rising, partial curve, poor fit] | 1.64 µM [rising, partial curve] |
| C[C@H]1CN=C(N(C)C)N1CCCC1CCCC1 | 14.4% | 0.116 µM [falling, full curve, poor fit] | 0.082 µM [falling, full curve, poor fit] |
| Cc1cc(Cl)ccc1OCC(=O)NNC(=O)c1ccco1 | -13.8% | – | – |
| CNc1ccc(C(=O)c2ccccc2C(=O)O)cc1[N+](=O)[O-] | 31.5% | – | 0.092 µM [falling, full curve, poor fit] |
| CN(C(=O)COC(=O)c1ccccc1SCC(=O)N1CCCC1)C1(C#N)CCCCC1 | -21.6% | 1.64 µM [rising, partial curve] | – |
| COC1CCCN(C(=O)c2ccc3oc(Cc4ccc(Cl)cc4)nc3c2)C1 (stereo unspecified) | 34.6% | 1.03 µM [rising, single point] | 23.1 µM [rising, single point] |
| COc1ccc(C(=O)CSc2n[nH]c(=O)[nH]c2=O)cc1 | 17.2% | – | – |
| Cc1ccc(-c2cc(-c3ccc4c(c3)OCO4)c(C#N)c(N)n2)o1 | -12.4% | – | – |
| CCCS(=O)(=O)N1CCCC(C(=O)NCCN2CCOCC2)C1 (stereo unspecified) | 6.28% | – | – |
| COc1ccc2cc(C3(C)NC(=O)NC3=O)ccc2c1 (stereo unspecified) | 0.628% | 4.11 µM [rising, single point] | – |
| Cc1ccc(S(=O)(=O)c2c(C)c(C)c(C)[nH]c2=O)cc1 | 20.6% | 3.66 µM [rising, full curve, poor fit] | – |
| Cc1ccc2cc(C#N)c(SCC(=O)Nc3ccc4sc(C)nc4c3)nc2c1 | 48.7% | 6.51 µM [rising, single point] | 5.8 µM [rising, full curve] |
| CC1CCc2c(sc3ncnc(SCC(=O)Nc4ccc(C(=O)O)cc4)c23)C1 (stereo unspecified) | -1.28% | 5.17 µM [rising, single point] | – |
| Cc1cc(C(=O)COC(=O)c2ccc3c(c2)NC(=O)CS3)c(C)n1CCc1ccc(Cl)cc1 | 36% | – | 1.3 µM [rising, full curve, poor fit] |
